Some of the results follow. The calls rarely recur for the same compound in another form.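 Kinases were expressed as nanoluciferase fusions in K562 cells and luminescence was read every 4 h between 2 and 18 h as percent of control, DMSO set to 100% and a positive control to 0%. A time point counts as decreased when the signal drops significantly (2 sigma). The hit call is the authors' own, does not follow from the count of time points alone, and its rule is not shown.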
How the values were obtained:
Conditions in all cases: K562; 2-18 h
[1] = molecular target: RET (UniProt P07949); experiment: kinase-Nluc reporter destabilization hit call (1 = scored as downregulated) (binary); higher = compound decreases kinase abundance
[2] = molecular target: RET_M918T (clone: RET_mut) (UniProt P07949); experiment: as above
[3] = molecular target: RIOK1 (UniProt Q9BRS2); experiment: as above
[4] = molecular target: RIPK1 (UniProt Q13546); experiment: as above
[5] = molecular target: RIPK2 (UniProt O43353); experiment: as above
[6] = molecular target: ROR2 (UniProt Q01974); experiment: as above
[7] = molecular target: RPS6KA1 (UniProt Q15418); experiment: as above
[8] = molecular target: SPHK1 (UniProt Q9NYA1); experiment: as above
[9] = molecular target: SRC (UniProt P12931); experiment: as above
[10] = molecular target: STK24 (UniProt Q9Y6E0); experiment: as above
[11] = molecular target: STK38 (UniProt Q15208); experiment: as above
[12] = molecular target: SYK (UniProt P43405); experiment: as above
[13] = molecular target: TEC (UniProt P42680); experiment: as above
[14] = molecular target: TYK2 (UniProt P29597); experiment: as above
[15] = molecular target: ULK3 (UniProt Q6PHR2); experiment: as above
[16] = molecular target: YES1 (UniProt P07947); experiment: as above
[17] = molecular target: ZAK (UniProt Q9NYL2); experiment: as above
[18] = molecular target: ZAP70 (UniProt P43403); experiment: as above
[19] = molecular target: ABL1 (UniProt P00519); experiment: number of time points (of 5) at which kinase-Nluc abundance scored as decreased, DMSO-normalised (count); higher = more persistent destabilization
[20] = molecular target: AKT1 (UniProt P31749); experiment: as above

Amino acid sequences for entries named in this document (tags omitted). A change or cut given only in a name is not applied to a line headed by its entry.
UniProt P07949, whole entry, looked up: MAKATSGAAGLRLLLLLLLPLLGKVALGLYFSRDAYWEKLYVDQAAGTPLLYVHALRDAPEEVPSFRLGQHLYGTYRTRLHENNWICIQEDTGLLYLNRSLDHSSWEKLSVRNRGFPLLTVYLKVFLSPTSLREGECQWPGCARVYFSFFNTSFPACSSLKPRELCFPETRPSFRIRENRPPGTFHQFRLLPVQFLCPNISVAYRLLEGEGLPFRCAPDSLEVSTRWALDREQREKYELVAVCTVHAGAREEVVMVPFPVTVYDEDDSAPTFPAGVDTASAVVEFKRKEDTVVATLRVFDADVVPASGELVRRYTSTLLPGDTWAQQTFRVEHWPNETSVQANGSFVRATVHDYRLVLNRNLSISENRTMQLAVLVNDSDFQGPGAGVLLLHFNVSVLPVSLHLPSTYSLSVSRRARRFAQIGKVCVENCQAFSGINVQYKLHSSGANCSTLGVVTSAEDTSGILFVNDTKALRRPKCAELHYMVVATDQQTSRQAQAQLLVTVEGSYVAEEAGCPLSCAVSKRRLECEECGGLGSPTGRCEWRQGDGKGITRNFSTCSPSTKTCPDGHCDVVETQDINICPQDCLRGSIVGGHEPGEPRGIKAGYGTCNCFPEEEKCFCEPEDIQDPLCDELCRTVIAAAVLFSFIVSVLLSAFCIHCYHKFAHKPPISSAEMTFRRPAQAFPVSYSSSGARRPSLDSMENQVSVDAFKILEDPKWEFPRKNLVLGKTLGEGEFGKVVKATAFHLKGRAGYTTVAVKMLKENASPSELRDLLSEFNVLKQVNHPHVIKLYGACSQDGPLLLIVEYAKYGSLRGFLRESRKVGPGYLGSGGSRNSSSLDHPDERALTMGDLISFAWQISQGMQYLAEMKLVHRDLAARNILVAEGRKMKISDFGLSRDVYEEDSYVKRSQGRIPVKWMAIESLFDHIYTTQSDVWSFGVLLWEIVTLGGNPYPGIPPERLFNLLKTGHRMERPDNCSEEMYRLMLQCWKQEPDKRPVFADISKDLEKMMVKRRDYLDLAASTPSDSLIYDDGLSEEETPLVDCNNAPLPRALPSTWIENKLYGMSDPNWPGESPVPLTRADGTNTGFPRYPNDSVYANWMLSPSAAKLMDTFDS
UniProt P07949, whole entry M918T, looked up: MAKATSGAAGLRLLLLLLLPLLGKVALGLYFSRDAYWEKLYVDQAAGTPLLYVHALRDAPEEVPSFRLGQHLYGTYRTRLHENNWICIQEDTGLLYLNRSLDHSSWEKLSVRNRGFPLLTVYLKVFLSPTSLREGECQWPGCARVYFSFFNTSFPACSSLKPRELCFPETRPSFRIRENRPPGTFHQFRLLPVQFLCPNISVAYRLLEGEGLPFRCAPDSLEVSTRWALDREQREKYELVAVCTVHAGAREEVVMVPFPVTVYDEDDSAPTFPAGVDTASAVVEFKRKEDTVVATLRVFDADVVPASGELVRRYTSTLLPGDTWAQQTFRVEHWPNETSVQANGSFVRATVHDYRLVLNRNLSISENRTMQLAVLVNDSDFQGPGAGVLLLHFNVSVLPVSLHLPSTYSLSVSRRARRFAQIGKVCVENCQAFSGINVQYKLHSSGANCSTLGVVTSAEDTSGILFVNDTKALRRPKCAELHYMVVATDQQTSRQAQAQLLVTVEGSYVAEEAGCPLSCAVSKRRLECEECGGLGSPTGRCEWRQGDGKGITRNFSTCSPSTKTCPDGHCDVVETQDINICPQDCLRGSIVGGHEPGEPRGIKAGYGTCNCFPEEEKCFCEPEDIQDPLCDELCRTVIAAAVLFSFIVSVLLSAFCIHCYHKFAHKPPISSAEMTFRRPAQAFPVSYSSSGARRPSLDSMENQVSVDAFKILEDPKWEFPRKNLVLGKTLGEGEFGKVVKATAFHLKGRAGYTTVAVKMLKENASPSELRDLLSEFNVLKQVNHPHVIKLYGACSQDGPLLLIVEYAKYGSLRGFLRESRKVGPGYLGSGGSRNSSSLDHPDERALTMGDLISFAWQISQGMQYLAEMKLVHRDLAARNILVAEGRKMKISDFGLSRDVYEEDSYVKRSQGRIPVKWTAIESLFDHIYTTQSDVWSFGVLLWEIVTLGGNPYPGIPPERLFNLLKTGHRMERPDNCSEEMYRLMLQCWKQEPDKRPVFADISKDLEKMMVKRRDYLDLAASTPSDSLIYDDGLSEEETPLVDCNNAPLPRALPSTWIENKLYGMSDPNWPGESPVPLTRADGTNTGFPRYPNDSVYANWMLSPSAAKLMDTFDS
UniProt Q01974, whole entry: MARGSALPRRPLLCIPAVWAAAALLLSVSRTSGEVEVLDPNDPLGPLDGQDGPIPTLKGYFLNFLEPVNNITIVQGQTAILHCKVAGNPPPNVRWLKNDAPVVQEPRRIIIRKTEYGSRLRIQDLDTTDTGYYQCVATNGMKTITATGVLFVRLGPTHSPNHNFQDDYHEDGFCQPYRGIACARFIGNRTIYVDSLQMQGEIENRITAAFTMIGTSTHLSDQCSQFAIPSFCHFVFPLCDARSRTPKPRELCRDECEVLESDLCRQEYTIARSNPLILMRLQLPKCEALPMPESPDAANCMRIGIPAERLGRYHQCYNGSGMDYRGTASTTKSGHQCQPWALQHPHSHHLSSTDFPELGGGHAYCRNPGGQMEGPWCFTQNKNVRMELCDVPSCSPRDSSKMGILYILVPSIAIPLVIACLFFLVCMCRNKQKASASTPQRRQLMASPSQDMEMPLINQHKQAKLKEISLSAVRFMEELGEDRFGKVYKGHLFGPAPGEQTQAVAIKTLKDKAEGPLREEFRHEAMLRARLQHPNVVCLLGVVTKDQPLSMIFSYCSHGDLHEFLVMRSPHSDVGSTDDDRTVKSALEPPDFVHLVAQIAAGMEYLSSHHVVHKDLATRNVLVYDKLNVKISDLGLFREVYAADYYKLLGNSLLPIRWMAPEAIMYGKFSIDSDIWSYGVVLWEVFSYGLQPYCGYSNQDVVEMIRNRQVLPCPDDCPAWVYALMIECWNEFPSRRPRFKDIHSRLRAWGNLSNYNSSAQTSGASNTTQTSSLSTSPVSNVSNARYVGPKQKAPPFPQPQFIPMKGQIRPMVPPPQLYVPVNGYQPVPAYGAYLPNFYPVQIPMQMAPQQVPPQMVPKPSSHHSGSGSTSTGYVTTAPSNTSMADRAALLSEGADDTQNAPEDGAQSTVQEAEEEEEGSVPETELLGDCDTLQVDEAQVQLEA
UniProt Q9Y6E0: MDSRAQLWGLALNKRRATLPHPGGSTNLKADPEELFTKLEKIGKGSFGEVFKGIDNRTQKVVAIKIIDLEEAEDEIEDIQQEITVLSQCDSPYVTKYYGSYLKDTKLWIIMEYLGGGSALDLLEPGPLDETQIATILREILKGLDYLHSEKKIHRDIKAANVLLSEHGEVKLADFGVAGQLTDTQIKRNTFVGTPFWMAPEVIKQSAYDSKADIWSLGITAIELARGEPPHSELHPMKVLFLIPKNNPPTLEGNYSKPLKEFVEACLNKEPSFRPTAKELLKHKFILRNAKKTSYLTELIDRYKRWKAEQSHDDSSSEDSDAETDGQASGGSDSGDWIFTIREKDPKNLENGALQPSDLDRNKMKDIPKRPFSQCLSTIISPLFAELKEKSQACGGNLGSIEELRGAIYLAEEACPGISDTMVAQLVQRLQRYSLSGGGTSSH
UniProt Q15208: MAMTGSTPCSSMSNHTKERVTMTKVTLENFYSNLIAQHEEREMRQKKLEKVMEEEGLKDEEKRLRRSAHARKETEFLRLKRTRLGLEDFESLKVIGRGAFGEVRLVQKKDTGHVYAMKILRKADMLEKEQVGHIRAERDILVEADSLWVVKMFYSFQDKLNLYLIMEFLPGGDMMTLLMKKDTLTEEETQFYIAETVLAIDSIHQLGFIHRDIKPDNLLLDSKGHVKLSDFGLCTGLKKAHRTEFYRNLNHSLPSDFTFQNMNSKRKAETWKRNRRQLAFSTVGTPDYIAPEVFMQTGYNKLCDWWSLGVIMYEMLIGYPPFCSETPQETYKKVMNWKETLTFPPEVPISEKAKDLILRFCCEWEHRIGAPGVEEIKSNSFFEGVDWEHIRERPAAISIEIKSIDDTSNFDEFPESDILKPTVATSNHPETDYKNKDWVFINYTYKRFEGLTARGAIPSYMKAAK
UniProt Q6PHR2: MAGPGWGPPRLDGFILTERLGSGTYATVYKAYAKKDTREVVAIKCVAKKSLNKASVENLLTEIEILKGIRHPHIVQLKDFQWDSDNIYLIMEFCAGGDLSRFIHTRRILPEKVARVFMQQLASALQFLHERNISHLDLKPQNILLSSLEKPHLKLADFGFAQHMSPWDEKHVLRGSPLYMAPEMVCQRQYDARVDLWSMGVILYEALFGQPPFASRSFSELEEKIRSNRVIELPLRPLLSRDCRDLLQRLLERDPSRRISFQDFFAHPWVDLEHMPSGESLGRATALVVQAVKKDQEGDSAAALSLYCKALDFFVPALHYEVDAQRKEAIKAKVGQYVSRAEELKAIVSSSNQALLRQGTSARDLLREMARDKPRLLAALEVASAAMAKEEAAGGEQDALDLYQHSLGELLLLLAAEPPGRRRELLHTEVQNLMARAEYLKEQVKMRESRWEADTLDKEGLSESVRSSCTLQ
UniProt P43403: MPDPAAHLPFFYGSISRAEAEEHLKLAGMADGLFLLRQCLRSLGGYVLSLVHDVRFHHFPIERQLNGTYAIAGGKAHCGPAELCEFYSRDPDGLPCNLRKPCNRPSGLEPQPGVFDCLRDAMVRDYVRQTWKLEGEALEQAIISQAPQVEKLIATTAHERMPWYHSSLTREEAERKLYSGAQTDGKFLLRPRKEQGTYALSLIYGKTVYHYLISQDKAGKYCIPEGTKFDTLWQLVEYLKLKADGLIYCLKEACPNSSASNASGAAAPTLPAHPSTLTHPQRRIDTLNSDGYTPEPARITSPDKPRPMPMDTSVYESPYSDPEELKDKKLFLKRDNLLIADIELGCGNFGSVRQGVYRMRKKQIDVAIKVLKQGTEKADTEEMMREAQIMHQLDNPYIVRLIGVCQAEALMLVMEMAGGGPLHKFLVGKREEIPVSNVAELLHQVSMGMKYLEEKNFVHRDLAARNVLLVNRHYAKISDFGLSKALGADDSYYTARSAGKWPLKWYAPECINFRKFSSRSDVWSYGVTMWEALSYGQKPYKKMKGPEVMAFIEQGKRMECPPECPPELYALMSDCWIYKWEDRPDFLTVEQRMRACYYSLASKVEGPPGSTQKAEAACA
UniProt P00519, whole entry: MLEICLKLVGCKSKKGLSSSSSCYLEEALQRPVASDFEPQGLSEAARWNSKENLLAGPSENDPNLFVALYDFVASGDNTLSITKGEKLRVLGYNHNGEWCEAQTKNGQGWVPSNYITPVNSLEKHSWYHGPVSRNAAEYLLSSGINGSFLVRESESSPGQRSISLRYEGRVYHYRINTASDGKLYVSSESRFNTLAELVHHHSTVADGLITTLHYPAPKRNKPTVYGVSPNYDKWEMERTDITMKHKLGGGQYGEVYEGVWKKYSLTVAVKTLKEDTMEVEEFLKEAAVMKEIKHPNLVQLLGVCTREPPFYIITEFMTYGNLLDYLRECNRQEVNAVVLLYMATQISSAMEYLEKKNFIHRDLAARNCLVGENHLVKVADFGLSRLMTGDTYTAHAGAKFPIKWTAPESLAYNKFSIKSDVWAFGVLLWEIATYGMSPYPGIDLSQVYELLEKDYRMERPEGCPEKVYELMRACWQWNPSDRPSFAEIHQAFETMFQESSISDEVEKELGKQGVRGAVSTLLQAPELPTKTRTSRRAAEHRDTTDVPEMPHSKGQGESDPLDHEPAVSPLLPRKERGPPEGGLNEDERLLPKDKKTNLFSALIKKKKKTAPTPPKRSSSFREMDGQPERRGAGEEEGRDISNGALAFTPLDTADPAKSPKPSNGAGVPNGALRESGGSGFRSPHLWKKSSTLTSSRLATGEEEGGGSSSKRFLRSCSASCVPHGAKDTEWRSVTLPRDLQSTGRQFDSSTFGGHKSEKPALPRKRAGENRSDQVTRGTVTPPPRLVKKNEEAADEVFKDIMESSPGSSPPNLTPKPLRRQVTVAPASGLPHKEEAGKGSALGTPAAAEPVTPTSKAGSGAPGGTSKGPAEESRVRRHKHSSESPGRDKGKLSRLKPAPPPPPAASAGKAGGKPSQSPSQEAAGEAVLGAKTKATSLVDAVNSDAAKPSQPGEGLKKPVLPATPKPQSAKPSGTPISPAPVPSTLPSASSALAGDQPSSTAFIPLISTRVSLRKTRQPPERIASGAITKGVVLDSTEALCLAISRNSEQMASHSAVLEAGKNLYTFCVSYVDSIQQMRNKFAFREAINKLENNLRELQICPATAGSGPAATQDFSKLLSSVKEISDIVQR

Structure (SMILES) | kinase-Nluc reporter destabilization hit call [1] | kinase-Nluc reporter destabilization hit call [2] | kinase-Nluc reporter destabilization hit call [3] | kinase-Nluc reporter destabilization hit call [4] | kinase-Nluc reporter destabilization hit call [5] | kinase-Nluc reporter destabilization hit call [6] | kinase-Nluc reporter destabilization hit call [7] | kinase-Nluc reporter destabilization hit call [8] | kinase-Nluc reporter destabilization hit call [9] | kinase-Nluc reporter destabilization hit call [10] | kinase-Nluc reporter destabilization hit call [11] | kinase-Nluc reporter destabilization hit call [12] | kinase-Nluc reporter destabilization hit call [13] | kinase-Nluc reporter destabilization hit call [14] | kinase-Nluc reporter destabilization hit call [15] | kinase-Nluc reporter destabilization hit call [16] | kinase-Nluc reporter destabilization hit call [17] | kinase-Nluc reporter destabilization hit call [18] | number of time points [19] | number of time points [20]
CCCCC[C@H](O)CC(=O)CCc1ccc(O)c(OC)c1 [[6]-Gingerol] (10 µM) | inactive: 0 | inactive: 0 | inactive: 0 | inactive: 0 | inactive: 0 | inactive: 0 | inactive: 0 | inactive: 0 | inactive: 0 | inactive: 0 | inactive: 0 | inactive: 0 | inactive: 0 | inactive: 0 | inactive: 0 | inactive: 0 | inactive: 0 | inactive: 0 | 0 | 0
O=C1Nc2ccccc2/C1=C/c1ccc(F)cc1 (10 µM) | inactive: 0 | inactive: 0 | inactive: 0 | inactive: 0 | inactive: 0 | inactive: 0 | inactive: 0 | inactive: 0 | inactive: 0 | inactive: 0 | inactive: 0 | inactive: 0 | inactive: 0 | inactive: 0 | inactive: 0 | inactive: 0 | inactive: 0 | inactive: 0 | 0 | 0
CCN1C(=O)N(c2c(F)c(OC)cc(OC)c2F)Cc2cnc3[nH]c(CN4CCOCC4)cc3c21 [Pemigatinib] (10 µM) | inactive: 0 | inactive: 0 | inactive: 0 | inactive: 0 | inactive: 0 | inactive: 0 | inactive: 0 | inactive: 0 | inactive: 0 | inactive: 0 | inactive: 0 | inactive: 0 | inactive: 0 | inactive: 0 | inactive: 0 | inactive: 0 | inactive: 0 | inactive: 0 | 0 | 0
O=C1Cc2c([nH]c3ccc(Br)cc23)-c2ncccc2N1 [1-Azakenpaullone] (10 µM) | inactive: 0 | inactive: 0 | inactive: 0 | inactive: 0 | inactive: 0 | inactive: 0 | inactive: 0 | inactive: 0 | inactive: 0 | inactive: 0 | inactive: 0 | inactive: 0 | inactive: 0 | inactive: 0 | inactive: 0 | inactive: 0 | inactive: 0 | inactive: 0 | 0 | 0
Cc1cc(C(=O)Nc2cccc(C(=O)Nc3cccc(C(F)(F)F)c3)c2)on1 (10 µM) | inactive: 0 | inactive: 0 | inactive: 0 | inactive: 0 | inactive: 0 | inactive: 0 | inactive: 0 | inactive: 0 | inactive: 0 | inactive: 0 | inactive: 0 | inactive: 0 | inactive: 0 | inactive: 0 | inactive: 0 | inactive: 0 | inactive: 0 | inactive: 0 | 0 | 0
O=C([O-])c1ccccc1O.[Na+] [Sodium Salicylate] (10 µM) | inactive: 0 | inactive: 0 | inactive: 0 | inactive: 0 | inactive: 0 | inactive: 0 | inactive: 0 | inactive: 0 | inactive: 0 | inactive: 0 | inactive: 0 | inactive: 0 | inactive: 0 | inactive: 0 | inactive: 0 | inactive: 0 | inactive: 0 | inactive: 0 | 0 | 0
COCCNCCc1cccc(Nc2ncc3c(n2)-c2ccccc2[C@H](c2ccccc2F)C3)c1 [Derazantinib] (2.5 µM) | inactive: 0 | inactive: 0 | inactive: 0 | inactive: 0 | inactive: 0 | inactive: 0 | inactive: 0 | inactive: 0 | inactive: 0 | inactive: 0 | inactive: 0 | inactive: 0 | inactive: 0 | inactive: 0 | inactive: 0 | inactive: 0 | inactive: 0 | inactive: 0 | 0 | 0
C=CC(=O)Nc1cccc(Nc2nc(Nc3ccc(OCCOC)cc3)ncc2F)c1 [Spebrutinib] (10 µM) | inactive: 0 | inactive: 0 | inactive: 0 | inactive: 0 | inactive: 0 | inactive: 0 | inactive: 0 | inactive: 0 | inactive: 0 | inactive: 0 | inactive: 0 | inactive: 0 | inactive: 0 | inactive: 0 | inactive: 0 | inactive: 0 | inactive: 0 | inactive: 0 | 0 | 0
COc1cc(CCc2cc(-c3nc4ccc(N5CCN(C)CC5)cc4[nH]3)n[nH]2)cc(OC)c1 (10 µM) | inactive: 0 | inactive: 0 | inactive: 0 | inactive: 0 | inactive: 0 | inactive: 0 | inactive: 0 | inactive: 0 | inactive: 0 | inactive: 0 | inactive: 0 | inactive: 0 | inactive: 0 | inactive: 0 | inactive: 0 | inactive: 0 | inactive: 0 | inactive: 0 | 4 | 0

2 compounds from above, limited to kinase-Nluc reporter destabilization hit call [18]:

| Structure (SMILES) | kinase-Nluc reporter destabilization hit call [18] |
| --- | --- |
| Cc1cc(C(=O)Nc2cccc(C(=O)Nc3cccc(C(F)(F)F)c3)c2)on1 (10 µM) | inactive: 0 |
| O=C([O-])c1ccccc1O.[Na+] [Sodium Salicylate] (10 µM) | inactive: 0 |

From the supplement of paper PMC12823440, “Inhibitors supercharge kinase turnover through native proteolytic circuits” (Nature, 2025)
